The values that follow come from US20100311946 (published 2010).

Data set [1] is described as follows: solid-phase peptide synthesis.
The nature of data set [2]: general procedure: Fmoc solid-phase peptide synthesis; CTC resin; DIC/HOBt; HBTU/HOBt/DIEA for solution steps. Conditions: late stage modification step, run 5.
[3] abbreviates: late stage modification step, run 1.

Consider “p.Glu-His-Trp-Ser-Tyr-D.Ser(tBu)-Leu-Arg-Pro-Azagly-CONH2”, for which the outcome in data set [1] (late stage modification step) is “HPLC analysis showed that no goserelin was produced”; in data set [1] (whole synthesis, run 1), “peptide was not cleaved from the resin and there was no reaction with semicarbazide”; in data set [1] (whole synthesis, run 2), “This synthesis was unsuccessful, as HPLC analysis showed no product peak”. Besides, the “crude HPLC purity” value in data set [1] (setting [3]) was 20.05%; in data set [1] (late stage modification step, run 2), 6%; in data set [1] (late stage modification step, run 3) it was 14%; in data set [1] (late stage modification step, run 4) it was 9%; in data set [1] (whole synthesis, run 1), over 13.46%; in data set [1] (whole synthesis, run 2), over 1.03%. Further, the “crude HPLC purity” value is reported as over 25.2% in data set [1] (whole synthesis, run 3); over 23.55% in data set [1] (whole synthesis, run 4); over 23.95% in data set [1] (whole synthesis, run 5); over 3.16% in data set [2]. For the same substance, the step yield in data set [1] (late stage modification step, theoretical yield) is reported as 69.7%; in data set [1] (setting [3]), 7.8%. The difficulty met result in data set [1] (setting [3]) is “HPLC analysis showed that there was almost no goserelin peak”. In addition, in data set [1] (whole synthesis, scale 0.0003 mole), the crude mass was determined as 0.26 g. The crude yield in data set [1] (whole synthesis, run 1) is 37.14%; in data set [1] (whole synthesis, run 2), 55.71%; in data set [1] (whole synthesis, run 3) it was 74.3%; in data set [1] (whole synthesis, run 4), 62.86%.
